Laboratory results reported in the supplement of paper PMC10849652.
This is one part of the list.

Amino acid sequences for entries named in this document (tags omitted). A change or cut given only in a name is not applied to a line headed by its entry.
UniProt Q8IYD1, whole entry, looked up: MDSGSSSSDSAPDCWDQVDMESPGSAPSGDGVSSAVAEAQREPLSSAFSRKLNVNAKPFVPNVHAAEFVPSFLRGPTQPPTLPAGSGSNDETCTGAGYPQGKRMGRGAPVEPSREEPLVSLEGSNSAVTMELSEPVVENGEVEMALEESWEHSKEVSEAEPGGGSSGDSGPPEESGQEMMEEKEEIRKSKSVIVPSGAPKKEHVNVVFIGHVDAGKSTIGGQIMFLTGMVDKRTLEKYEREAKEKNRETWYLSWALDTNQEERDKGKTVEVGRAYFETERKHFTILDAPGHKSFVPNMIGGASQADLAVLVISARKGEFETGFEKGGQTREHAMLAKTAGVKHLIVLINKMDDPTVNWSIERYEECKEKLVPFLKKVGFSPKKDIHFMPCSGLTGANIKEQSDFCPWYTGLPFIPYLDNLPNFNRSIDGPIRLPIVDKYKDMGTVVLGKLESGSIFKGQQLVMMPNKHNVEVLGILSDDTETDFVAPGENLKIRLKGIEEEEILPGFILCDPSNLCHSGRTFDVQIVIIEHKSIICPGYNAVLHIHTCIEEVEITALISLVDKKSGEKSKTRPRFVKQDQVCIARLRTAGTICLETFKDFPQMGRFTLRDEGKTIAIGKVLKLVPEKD
UniProt Q9Y3E1: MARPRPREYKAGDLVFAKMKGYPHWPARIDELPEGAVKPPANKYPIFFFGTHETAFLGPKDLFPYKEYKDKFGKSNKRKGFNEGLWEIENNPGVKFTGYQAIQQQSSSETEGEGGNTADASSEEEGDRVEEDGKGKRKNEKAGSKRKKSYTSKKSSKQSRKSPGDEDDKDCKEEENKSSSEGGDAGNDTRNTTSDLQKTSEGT
UniProt P40939: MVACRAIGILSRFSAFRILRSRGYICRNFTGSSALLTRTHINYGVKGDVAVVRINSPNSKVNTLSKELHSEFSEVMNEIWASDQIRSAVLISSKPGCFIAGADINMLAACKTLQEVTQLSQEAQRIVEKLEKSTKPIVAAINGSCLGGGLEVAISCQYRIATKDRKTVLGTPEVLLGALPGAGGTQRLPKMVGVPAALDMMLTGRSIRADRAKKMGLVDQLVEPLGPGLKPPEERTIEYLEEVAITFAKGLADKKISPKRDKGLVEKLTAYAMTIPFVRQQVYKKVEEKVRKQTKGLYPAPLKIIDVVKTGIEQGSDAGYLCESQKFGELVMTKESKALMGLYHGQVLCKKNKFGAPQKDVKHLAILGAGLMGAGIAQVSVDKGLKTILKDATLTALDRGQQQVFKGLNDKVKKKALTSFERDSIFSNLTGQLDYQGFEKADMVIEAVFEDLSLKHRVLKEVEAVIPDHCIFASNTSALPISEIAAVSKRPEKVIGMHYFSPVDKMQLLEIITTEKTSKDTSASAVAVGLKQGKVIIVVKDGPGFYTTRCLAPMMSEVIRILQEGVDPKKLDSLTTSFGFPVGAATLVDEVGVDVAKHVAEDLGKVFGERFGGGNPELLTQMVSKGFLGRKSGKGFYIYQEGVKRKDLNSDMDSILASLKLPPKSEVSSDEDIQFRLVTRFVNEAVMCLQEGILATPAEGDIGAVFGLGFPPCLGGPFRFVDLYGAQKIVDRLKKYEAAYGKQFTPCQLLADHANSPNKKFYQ
UniProt Q9Y5Q8: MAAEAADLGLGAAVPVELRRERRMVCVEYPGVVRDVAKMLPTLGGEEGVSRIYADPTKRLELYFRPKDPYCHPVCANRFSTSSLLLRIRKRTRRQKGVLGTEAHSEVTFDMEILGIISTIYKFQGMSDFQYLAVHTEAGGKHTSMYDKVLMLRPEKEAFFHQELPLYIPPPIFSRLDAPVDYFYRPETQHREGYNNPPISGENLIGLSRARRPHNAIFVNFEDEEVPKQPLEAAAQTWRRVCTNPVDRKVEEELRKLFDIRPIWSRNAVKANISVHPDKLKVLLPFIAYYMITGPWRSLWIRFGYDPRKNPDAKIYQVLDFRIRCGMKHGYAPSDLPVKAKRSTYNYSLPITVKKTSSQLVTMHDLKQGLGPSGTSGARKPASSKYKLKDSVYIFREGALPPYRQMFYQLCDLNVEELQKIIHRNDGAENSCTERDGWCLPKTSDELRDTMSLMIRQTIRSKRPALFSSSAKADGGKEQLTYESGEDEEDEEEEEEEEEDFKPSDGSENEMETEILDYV
UniProt P30711: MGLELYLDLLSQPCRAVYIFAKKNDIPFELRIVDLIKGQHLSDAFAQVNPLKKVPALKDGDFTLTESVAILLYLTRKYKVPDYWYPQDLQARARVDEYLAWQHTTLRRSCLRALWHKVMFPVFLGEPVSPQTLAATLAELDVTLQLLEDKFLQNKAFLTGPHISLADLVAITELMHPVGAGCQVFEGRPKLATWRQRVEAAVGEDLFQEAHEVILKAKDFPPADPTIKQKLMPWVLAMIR
UniProt P06865: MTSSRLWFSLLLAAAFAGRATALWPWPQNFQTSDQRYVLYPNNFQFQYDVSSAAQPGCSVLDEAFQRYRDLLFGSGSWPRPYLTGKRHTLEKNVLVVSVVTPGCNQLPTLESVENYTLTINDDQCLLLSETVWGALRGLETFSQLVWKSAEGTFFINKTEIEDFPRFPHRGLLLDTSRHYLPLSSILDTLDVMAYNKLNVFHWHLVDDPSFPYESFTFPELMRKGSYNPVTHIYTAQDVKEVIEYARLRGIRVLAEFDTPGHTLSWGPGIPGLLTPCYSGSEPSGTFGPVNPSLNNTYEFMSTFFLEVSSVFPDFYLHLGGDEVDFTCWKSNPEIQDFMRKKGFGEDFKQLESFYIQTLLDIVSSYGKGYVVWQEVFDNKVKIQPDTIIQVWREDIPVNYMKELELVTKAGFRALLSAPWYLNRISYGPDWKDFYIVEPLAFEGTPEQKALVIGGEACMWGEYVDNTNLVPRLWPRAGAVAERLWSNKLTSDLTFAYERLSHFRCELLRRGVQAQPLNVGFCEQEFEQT
UniProt O15379: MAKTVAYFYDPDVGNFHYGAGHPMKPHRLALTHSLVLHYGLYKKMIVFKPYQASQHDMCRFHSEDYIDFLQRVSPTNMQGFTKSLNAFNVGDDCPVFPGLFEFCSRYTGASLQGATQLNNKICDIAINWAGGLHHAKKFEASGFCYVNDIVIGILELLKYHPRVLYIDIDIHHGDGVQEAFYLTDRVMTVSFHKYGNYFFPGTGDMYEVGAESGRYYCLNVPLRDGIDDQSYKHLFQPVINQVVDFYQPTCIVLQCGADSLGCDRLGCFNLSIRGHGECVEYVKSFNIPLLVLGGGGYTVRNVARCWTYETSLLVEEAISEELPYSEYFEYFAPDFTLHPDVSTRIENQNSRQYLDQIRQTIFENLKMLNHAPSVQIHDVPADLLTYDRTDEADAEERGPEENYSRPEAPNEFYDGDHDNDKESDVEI
UniProt P48637: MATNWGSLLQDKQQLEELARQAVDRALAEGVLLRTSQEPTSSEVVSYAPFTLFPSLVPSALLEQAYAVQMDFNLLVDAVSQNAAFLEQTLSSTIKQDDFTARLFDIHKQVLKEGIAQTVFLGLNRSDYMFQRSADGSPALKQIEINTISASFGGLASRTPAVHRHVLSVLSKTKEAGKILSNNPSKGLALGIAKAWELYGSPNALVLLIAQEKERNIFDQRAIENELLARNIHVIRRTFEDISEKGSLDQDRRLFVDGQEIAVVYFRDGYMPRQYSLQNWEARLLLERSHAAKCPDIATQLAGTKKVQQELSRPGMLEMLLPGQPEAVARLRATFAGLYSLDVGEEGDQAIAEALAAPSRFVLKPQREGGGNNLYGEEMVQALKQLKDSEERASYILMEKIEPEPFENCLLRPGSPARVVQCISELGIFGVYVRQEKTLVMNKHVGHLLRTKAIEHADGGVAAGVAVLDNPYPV
UniProt Q9NYZ3: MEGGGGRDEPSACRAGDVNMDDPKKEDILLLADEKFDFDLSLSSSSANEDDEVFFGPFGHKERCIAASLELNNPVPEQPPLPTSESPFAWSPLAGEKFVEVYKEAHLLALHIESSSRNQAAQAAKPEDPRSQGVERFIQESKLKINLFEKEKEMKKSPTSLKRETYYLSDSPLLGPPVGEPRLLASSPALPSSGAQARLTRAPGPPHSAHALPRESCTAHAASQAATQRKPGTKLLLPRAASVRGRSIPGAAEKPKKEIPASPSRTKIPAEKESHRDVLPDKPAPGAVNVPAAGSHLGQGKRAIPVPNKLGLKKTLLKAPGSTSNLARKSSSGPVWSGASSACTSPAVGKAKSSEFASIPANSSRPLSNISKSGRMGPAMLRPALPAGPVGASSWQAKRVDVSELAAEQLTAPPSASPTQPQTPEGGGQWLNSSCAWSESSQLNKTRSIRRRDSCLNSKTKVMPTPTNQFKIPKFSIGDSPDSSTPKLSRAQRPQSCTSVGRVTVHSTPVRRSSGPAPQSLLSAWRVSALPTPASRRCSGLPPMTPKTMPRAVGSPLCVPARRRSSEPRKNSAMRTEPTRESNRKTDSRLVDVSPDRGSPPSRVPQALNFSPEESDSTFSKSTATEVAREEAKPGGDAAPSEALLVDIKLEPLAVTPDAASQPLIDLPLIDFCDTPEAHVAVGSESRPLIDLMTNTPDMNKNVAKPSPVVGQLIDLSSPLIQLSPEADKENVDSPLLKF
UniProt Q16774: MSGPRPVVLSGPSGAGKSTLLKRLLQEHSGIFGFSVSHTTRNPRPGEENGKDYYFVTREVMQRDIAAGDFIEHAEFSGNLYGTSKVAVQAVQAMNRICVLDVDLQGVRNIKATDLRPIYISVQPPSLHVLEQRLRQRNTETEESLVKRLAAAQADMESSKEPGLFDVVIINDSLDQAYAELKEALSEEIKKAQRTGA
UniProt Q7Z4V5: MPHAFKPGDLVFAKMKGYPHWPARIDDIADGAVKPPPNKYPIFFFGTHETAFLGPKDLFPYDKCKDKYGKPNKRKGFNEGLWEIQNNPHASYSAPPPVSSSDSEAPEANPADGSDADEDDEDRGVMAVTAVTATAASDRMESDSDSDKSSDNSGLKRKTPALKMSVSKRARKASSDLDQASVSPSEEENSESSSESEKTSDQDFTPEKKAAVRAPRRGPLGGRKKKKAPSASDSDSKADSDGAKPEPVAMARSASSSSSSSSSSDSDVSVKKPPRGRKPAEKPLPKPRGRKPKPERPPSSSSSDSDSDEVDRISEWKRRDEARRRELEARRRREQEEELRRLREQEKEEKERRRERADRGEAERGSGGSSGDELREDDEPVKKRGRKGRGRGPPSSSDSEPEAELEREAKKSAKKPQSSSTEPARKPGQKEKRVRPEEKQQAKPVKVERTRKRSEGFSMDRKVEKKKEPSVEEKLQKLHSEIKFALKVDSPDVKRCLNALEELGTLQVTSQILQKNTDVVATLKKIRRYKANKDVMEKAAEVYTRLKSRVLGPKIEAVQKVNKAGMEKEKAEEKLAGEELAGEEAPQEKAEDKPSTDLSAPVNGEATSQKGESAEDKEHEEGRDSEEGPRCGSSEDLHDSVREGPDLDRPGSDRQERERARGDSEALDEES
UniProt Q8TDG4: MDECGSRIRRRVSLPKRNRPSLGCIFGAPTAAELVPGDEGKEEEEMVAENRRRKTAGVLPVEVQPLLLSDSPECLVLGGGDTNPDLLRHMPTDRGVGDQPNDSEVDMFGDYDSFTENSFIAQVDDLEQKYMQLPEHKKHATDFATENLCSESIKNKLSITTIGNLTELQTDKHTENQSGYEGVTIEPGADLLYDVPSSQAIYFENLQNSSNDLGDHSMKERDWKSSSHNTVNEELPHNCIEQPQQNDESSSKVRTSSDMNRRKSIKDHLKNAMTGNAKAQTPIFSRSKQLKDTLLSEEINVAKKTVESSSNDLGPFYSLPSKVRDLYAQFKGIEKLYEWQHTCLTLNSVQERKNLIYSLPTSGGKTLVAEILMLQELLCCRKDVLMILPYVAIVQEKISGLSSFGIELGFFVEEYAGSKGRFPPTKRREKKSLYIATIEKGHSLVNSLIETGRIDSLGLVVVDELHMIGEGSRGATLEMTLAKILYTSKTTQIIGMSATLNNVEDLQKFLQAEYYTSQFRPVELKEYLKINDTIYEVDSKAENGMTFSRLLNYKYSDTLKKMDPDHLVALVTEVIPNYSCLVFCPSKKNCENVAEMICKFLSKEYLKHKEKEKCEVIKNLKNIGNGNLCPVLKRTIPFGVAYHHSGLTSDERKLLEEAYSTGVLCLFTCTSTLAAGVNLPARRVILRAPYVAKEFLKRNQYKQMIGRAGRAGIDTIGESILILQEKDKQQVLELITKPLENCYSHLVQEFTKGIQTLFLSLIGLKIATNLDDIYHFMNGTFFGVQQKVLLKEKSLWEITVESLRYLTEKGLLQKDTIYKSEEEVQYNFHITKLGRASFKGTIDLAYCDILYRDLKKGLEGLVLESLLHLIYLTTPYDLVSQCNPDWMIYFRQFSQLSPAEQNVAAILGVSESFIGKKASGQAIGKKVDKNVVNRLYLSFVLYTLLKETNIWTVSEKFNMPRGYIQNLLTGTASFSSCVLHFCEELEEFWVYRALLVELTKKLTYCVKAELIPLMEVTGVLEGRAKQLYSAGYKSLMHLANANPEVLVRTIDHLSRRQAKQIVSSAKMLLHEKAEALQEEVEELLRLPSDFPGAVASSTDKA

Tests used:
Assay in all cases: log2 fold change, soluble protein after heating vs DMSO (PISA); higher = thermal stabilisation; K562 cells, 10 uM, 30 min; active = over 0.2 and 3.5 SD of the protein, either way, in both replicates (recomputed)
bafetinib = compound: Cc1ccc(NC(=O)c2ccc(CN3CC[C@H](N(C)C)C3)c(C(F)(F)F)c2)cc1Nc1nccc(-c2cncnc2)n1 [bafetinib]
Method in brief: (§1)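 Quantification of soluble protein used TMTpro 16plex LC-MS/MS, with channel sums equalised. Samples were the supernatant after 21,000xg for 90 min of pooled aliquots from K562 cells (2×10^6 cells/mL) treated with 10 μM compound for 30 min, heated for 3 min over 48°C-58°C, and extracted in PBS with 0.5% NP-40 at 4°C. Values, from duplicates, describe thermal stability against control samples on a log2 fold-change scale.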

[1] = compound: Cc1cccc(CC(=O)N2CCc3c2ccc(-c2cn(C)c4ncnc(N)c24)c3F)n1
Method in brief: as §1

nilotinib = compound: Cc1cn(-c2cc(NC(=O)c3ccc(C)c(Nc4nccc(-c5cccnc5)n4)c3)cc(C(F)(F)F)c2)cn1 [nilotinib]
Method in brief: as §1

[2] = compound: Cc1nc(Nc2n[nH]c3c2CN(C(=O)N[C@H](CN(C)C)c2ccccc2)C3(C)C)c2sccc2n1
Method in brief: as §1

dasatinib = compound: Cc1nc(Nc2ncc(C(=O)Nc3c(C)cccc3Cl)s2)cc(N2CCN(CCO)CC2)n1 [dasatinib]
Method in brief: as §1

[3] = compound: Cc1ncc(-c2ccnc(Nc3ccc(S(C)(=O)=O)cc3)n2)n1C(C)C
Method in brief: as §1

[4] = compound: Cn1cc(-c2ccc3c(c2)CCN3C(=O)Cc2cccc(C(F)(F)F)c2)c2c(N)ncnc21
Method in brief: as §1

[5] = compound: Cn1cc(-c2ccc3nnc(C(F)(F)c4ccc5ncccc5c4)n3n2)cn1
Method in brief: as §1

tipifarnib = compound: Cn1cncc1[C@@](N)(c1ccc(Cl)cc1)c1ccc2c(c1)c(-c1cccc(Cl)c1)cc(=O)n2C [tipifarnib]
Method in brief: as §1

mubritinib = compound: FC(F)(F)c1ccc(/C=C/c2nc(COc3ccc(CCCCn4ccnn4)cc3)co2)cc1 [mubritinib]
Method in brief: as §1

Measured: log2 fold change

HELB (UniProt Q8NG08)
inactive: bafetinib -0.03 | [1] -0.025 | nilotinib 0.026 | [2] 0.039 | dasatinib 0.007 | [3] -0.018 | [4] -0.011 | [5] -0.013 | tipifarnib -0.082 | mubritinib 0.048

GSPT2 (UniProt Q8IYD1)
inactive: bafetinib -0.102 | [1] 0.092 | nilotinib -0.102 | [2] 0.019 | dasatinib -0.182 | [3] 0.056 | [4] -0.003 | [5] -0.005 | tipifarnib -0.047 | mubritinib -0.041

HDGFL3 (UniProt Q9Y3E1)
inactive: bafetinib -0.037 | [1] -0.162 | nilotinib -0.023 | [2] -0.008 | dasatinib 0.035 | [3] -0.007 | [4] -0.069 | [5] 0.035 | tipifarnib 0.055 | mubritinib 0.016

HARS (UniProt P12081)
inactive: bafetinib -0.07 | [1] -0.007 | nilotinib -0.006 | [2] -0.015 | dasatinib 0.056 | [3] -0.022 | [4] 0.009 | [5] 0.044 | tipifarnib 0.02 | mubritinib 0.015

HEATR3 (UniProt Q7Z4Q2)
inactive: bafetinib 0.058 | nilotinib -0.045 | [2] -0.088 | dasatinib -0.073 | [3] -0.073 | [4] -0.008 | [5] 0.138 | tipifarnib -0.011 | mubritinib -0.079
active: [1] 0.389

Two records drawn at random from those above, as already listed:
HELB (UniProt Q8NG08)
inactive: bafetinib -0.03 | [1] -0.025 | nilotinib 0.026 | [2] 0.039 | dasatinib 0.007 | [3] -0.018 | [4] -0.011 | [5] -0.013 | tipifarnib -0.082 | mubritinib 0.048

HARS (UniProt P12081)
inactive: bafetinib -0.07 | [1] -0.007 | nilotinib -0.006 | [2] -0.015 | dasatinib 0.056 | [3] -0.022 | [4] 0.009 | [5] 0.044 | tipifarnib 0.02 | mubritinib 0.015

(next part)

HACL1 (UniProt Q9UJ83)
inactive: bafetinib 0.024 | [1] 0.018 | nilotinib -0.025 | [2] 0.021 | dasatinib 0.013 | [3] -0.028 | [4] 0.031 | [5] -0.027 | tipifarnib -0.011 | mubritinib 0.028

GSTZ1 (UniProt G3V4T6)
inactive: bafetinib 0 | [1] -0.042 | nilotinib -0.016 | [2] -0.002 | dasatinib -0.022 | [3] -0.038 | [4] 0.077 | [5] -0.031 | tipifarnib 0.014 | mubritinib 0.032

HADHA (UniProt P40939)
inactive: bafetinib 0.293 | [1] 0.097 | nilotinib 0.049 | [2] -0.078 | dasatinib -0.05 | [3] 0.036 | [4] 0.203 | [5] 0.069 | tipifarnib -0.304
active: mubritinib 0.685

HBG2 (UniProt P69892)
inactive: bafetinib 0.008 | [1] 0.043 | nilotinib 0.021 | [2] 0.014 | dasatinib 0.003 | [3] -0.01 | [4] 0.121 | [5] 0.015 | tipifarnib -0.137 | mubritinib 0.022

GUSB (UniProt P08236)
inactive: bafetinib 0.016 | [1] -0.013 | nilotinib 0.218 | [2] -0.115 | dasatinib 0.053 | [3] 0.117 | [4] -0.059 | [5] -0.007 | tipifarnib 0.16 | mubritinib -0.136

GTF2E1 (UniProt P29083)
inactive: bafetinib 0.014 | [1] 0.037 | nilotinib -0.112 | [2] -0.168 | dasatinib -0.173 | [3] -0.032 | [4] 0.02 | [5] 0.093 | tipifarnib -0.13 | mubritinib 0.05

GSN (UniProt P06396)
inactive: bafetinib -0.111 | [1] 0.027 | nilotinib 0.035 | [2] -0.018 | dasatinib -0.024 | [3] 0.07 | [4] 0.199 | [5] 0.01 | tipifarnib 0.082 | mubritinib -0.165

HBE1 (UniProt P02100)
inactive: bafetinib -0.046 | [1] -0.007 | nilotinib 0.001 | [2] 0.026 | dasatinib 0.057 | [3] -0.004 | [4] 0.123 | [5] 0.144 | tipifarnib -0.083 | mubritinib 0.015

HAGH (UniProt Q16775)
inactive: bafetinib -0.011 | [1] -0.013 | nilotinib 0.016 | [2] -0.021 | dasatinib -0.014 | [3] 0.05 | [4] 0.03 | [5] -0.065 | tipifarnib 0.018 | mubritinib 0.049

HBS1L (UniProt Q9Y450)
inactive: bafetinib 0.023 | [1] 0.026 | nilotinib -0.003 | [2] 0.034 | dasatinib -0.038 | [3] 0.016 | [4] 0.027 | [5] 0.025 | tipifarnib -0.088 | mubritinib 0.023

GTF3C5 isoform 3 (UniProt Q9Y5Q8)
inactive: bafetinib 0.028 | [1] -0.013 | nilotinib -0.04 | [2] -0.167 | dasatinib -0.269 | [3] -0.137 | [4] 0.027 | [5] -0.063 | tipifarnib 0.01 | mubritinib 0.065

H4C1 (UniProt P62805)
inactive: bafetinib 0.194 | [1] -0.146 | nilotinib -0.09 | [2] -0.056 | dasatinib 0.105 | [3] -0.083 | [4] -0.391 | [5] -0.133 | tipifarnib 0.037 | mubritinib -0.166

GSTT1 (UniProt P30711)
inactive: bafetinib -0.019 | [1] -0.144 | nilotinib 0.056 | [2] -0.019 | dasatinib 0.143 | [3] -0.033 | [4] 0.014 | [5] 0.043 | tipifarnib -0.065 | mubritinib 0.012

HEXA (UniProt P06865)
inactive: [1] -0.023 | nilotinib -0.001 | [2] 0.017 | dasatinib 0.016 | [3] -0.036 | [4] -0.003 | [5] 0.006 | tipifarnib 0.044 | mubritinib 0.023
active: bafetinib -0.491

HDAC3 isoform 2 (UniProt O15379)
inactive: bafetinib 0.033 | [1] 0.062 | nilotinib -0.007 | [2] -0.09 | dasatinib -0.179 | [3] -0.14 | [4] -0.088 | [5] -0.101 | tipifarnib 0.125 | mubritinib 0.079

HEATR5A (UniProt Q86XA9)
inactive: bafetinib -0.051 | [1] 0.036 | nilotinib -0.19 | [2] -0.067 | dasatinib -0.104 | [3] 0.042 | [4] 0.027 | [5] -0.004 | tipifarnib 0.005 | mubritinib 0.109

GSS (UniProt P48637)
inactive: bafetinib -0.038 | [1] -0.052 | nilotinib 0.001 | [2] 0.014 | dasatinib 0.03 | [3] -0.006 | [4] 0.022 | [5] 0.009 | tipifarnib -0.037 | mubritinib 0.049

HBQ1 (UniProt P09105)
inactive: bafetinib 0.028 | [1] 0.046 | nilotinib 0.054 | [2] -0.004 | dasatinib 0.102 | [3] -0.043 | [4] 0.12 | [5] 0.117 | tipifarnib -0.125 | mubritinib 0.039

GTSE1 (UniProt Q9NYZ3)
inactive: bafetinib 0.12 | [1] -0.005 | nilotinib 0.021 | [2] 0.053 | dasatinib 0.22 | [3] -0.028 | [4] 0.047 | [5] 0.005 | tipifarnib 0.064 | mubritinib -0.121

HDLBP (UniProt Q00341)
inactive: bafetinib 0.156 | [1] -0.046 | nilotinib -0.044 | [2] -0.143 | dasatinib 0 | [3] 0.012 | [4] -0.064 | [5] -0.103 | tipifarnib 0.079 | mubritinib -0.165

GUK1 isoform 2 (UniProt Q16774)
active: mubritinib 0.397
inactive: bafetinib 0.134 | [1] 0.053 | nilotinib 0.226 | [2] -0.056 | dasatinib -0.109 | [3] 0.054 | [4] 0.058 | [5] -0.007 | tipifarnib -0.15

H2AFX (UniProt P16104)
inactive: bafetinib 0.103 | [1] -0.198 | nilotinib -0.041 | [2] -0.025 | dasatinib 0.283 | [3] -0.012 | [4] -0.439 | [5] -0.146 | tipifarnib 0.074 | mubritinib -0.111

HARS2 (UniProt P49590)
inactive: bafetinib -0.029 | [1] -0.092 | nilotinib -0.002 | [2] 0.052 | dasatinib 0.034 | [3] 0.055 | [4] 0.038 | [5] 0.015 | tipifarnib 0.054 | mubritinib 0.085

HDGFL2 (UniProt Q7Z4V5)
inactive: bafetinib -0.017 | [1] -0.013 | nilotinib -0.007 | [2] -0.061 | dasatinib 0.035 | [3] -0.029 | [4] -0.018 | [5] -0.048 | tipifarnib 0.032 | mubritinib 0.098

HELQ (UniProt Q8TDG4)
inactive: bafetinib -0.038 | [1] -0.164 | nilotinib 0.263 | [2] -0.06 | dasatinib 0.086 | [3] -0.042 | [4] -0.107 | [5] -0.168 | tipifarnib -0.066 | mubritinib 0.132
